PubChem BioAssay AID652243, Drosophila RNAi Screening Center – 2013

- Test: 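Fly genes required for human androgen receptor driven transcription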 (primary screen)
- Cell system: Drosophila S2R+ cells
- Reagent: long dsRNA against Drosophila genes
- Time to read-out: 72 h (48 h, then 24 h hormone)
- Treatment: synthetic androgen R1881 at 10 nM for 24 h
- Measurement: 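Firefly light from an androgen-responsive reporter and Renilla control light per well, raw and unnormalised, for each of two replicates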
- Direction: firefly reporter light: higher = more light from androgen-responsive reporter; Renilla control light: higher = more constitutive control signal (cell number, transfection)
- Active means: 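Across duplicate plates, a knock-down whose log firefly/Renilla ratio shifted a set fold down or up from the GFP/LacZ control mean was a hit; the downward cut appears as both 1.5 and 3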
- Meaning of the calls: active = hit: reporter lowered or raised; inactive = no hit
In all, the deposit lists about 24,000 reagents; below is a random part of those with a known target gene and a result. Of all reagents, 246 (1%) got an active call. 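Plates not normalised; calls are printed but the firefly/Renilla ratio behind them is not deposited; fold cut for lowering reported inconsistently.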 Raw values are not corrected between plates. Not stated in the record: the amount of reagent.

Depletion of mRpL44 (mitochondrial ribosomal protein L44) [DRSC12306] resulted in: firefly reporter light, replicate 1 = 37963; firefly reporter light, replicate 2 = 63351; Renilla control light, replicate 1 = 3.00e5; Renilla control light, replicate 2 = 2.94e5; inactive. mRpL44 (mitochondrial ribosomal protein L44) [DRSC26876] gave firefly reporter light, replicate 1 = 2.82e5; firefly reporter light, replicate 2 = 2.89e5; Renilla control light, replicate 1 = 7.58e5; Renilla control light, replicate 2 = 6.93e5; inactive. Or59b (Odorant receptor 59b) [DRSC04632] showed firefly reporter light, replicate 1 = 2.50e5; firefly reporter light, replicate 2 = 2.49e5; Renilla control light, replicate 1 = 1.95e6; Renilla control light, replicate 2 = 1.39e6; inactive. For CG30466 [DRSC05556], the values are firefly reporter light, replicate 1 = 1.63e5; firefly reporter light, replicate 2 = 2.47e5; Renilla control light, replicate 1 = 3.42e5; Renilla control light, replicate 2 = 5.10e5; inactive. Silencing of Apc (APC-like) [DRSC14114] gave: firefly reporter light, replicate 1 = 1.49e5; firefly reporter light, replicate 2 = 1.81e5; Renilla control light, replicate 1 = 1.88e6; Renilla control light, replicate 2 = 2.69e6; inactive. Depletion of CG14423 [DRSC17920] came out at: firefly reporter light, replicate 1 = 3.35e5; firefly reporter light, replicate 2 = 3.26e5; Renilla control light, replicate 1 = 1.98e6; Renilla control light, replicate 2 = 1.66e6; inactive.

Against CG14423 [DRSC23857] the deposit lists firefly reporter light, replicate 1 = 7.56e5; firefly reporter light, replicate 2 = 8.15e5; Renilla control light, replicate 1 = 8.99e5; Renilla control light, replicate 2 = 7.93e5; inactive. CG8046 [DRSC07059] gave firefly reporter light, replicate 1 = 9.74e5; firefly reporter light, replicate 2 = 1.02e6; Renilla control light, replicate 1 = 2.55e6; Renilla control light, replicate 2 = 2.92e6; inactive. Against HHEX (Hematopoietically expressed homeobox) [DRSC16186], the values are firefly reporter light, replicate 1 = 46915; firefly reporter light, replicate 2 = 61316; Renilla control light, replicate 1 = 9.75e5; Renilla control light, replicate 2 = 1.37e6; active. For HHEX (Hematopoietically expressed homeobox) [DRSC29035], the entry reads firefly reporter light, replicate 1 = 6.90e5; firefly reporter light, replicate 2 = 6.91e5; Renilla control light, replicate 1 = 1.21e6; Renilla control light, replicate 2 = 1.37e6; inactive. Against CG3520 [DRSC04383] the deposit lists firefly reporter light, replicate 1 = 2.81e5; firefly reporter light, replicate 2 = 3.12e5; Renilla control light, replicate 1 = 1.79e6; Renilla control light, replicate 2 = 1.38e6; inactive.

3 entries already listed, ordered by “Renilla control light, replicate 1”, low to high.
CG30466 [DRSC05556]: firefly reporter light, replicate 1 = 1.63e5; firefly reporter light, replicate 2 = 2.47e5; Renilla control light, replicate 1 = 3.42e5; Renilla control light, replicate 2 = 5.10e5; activity call = inactive
mRpL44 (mitochondrial ribosomal protein L44) [DRSC26876]: firefly reporter light, replicate 1 = 2.82e5; firefly reporter light, replicate 2 = 2.89e5; Renilla control light, replicate 1 = 7.58e5; Renilla control light, replicate 2 = 6.93e5; activity call = inactive
Or59b (Odorant receptor 59b) [DRSC04632]: firefly reporter light, replicate 1 = 2.50e5; firefly reporter light, replicate 2 = 2.49e5; Renilla control light, replicate 1 = 1.95e6; Renilla control light, replicate 2 = 1.39e6; activity call = inactive

Next reagents follow:
CG4806 [DRSC04491] showed firefly reporter light, replicate 1 = 2.11e5; firefly reporter light, replicate 2 = 2.37e5; Renilla control light, replicate 1 = 1.15e6; Renilla control light, replicate 2 = 1.55e6; inactive. For Lcp65Aa [DRSC11209], the entry reads firefly reporter light, replicate 1 = 1.50e5; firefly reporter light, replicate 2 = 1.23e5; Renilla control light, replicate 1 = 1.87e6; Renilla control light, replicate 2 = 1.73e6; inactive. Depletion of Lcp65Aa [DRSC27546] resulted in: firefly reporter light, replicate 1 = 2.18e5; firefly reporter light, replicate 2 = 2.31e5; Renilla control light, replicate 1 = 4.84e5; Renilla control light, replicate 2 = 8.33e5; inactive. az2 [DRSC07580] gave firefly reporter light, replicate 1 = 7.66e5; firefly reporter light, replicate 2 = 7.71e5; Renilla control light, replicate 1 = 2.19e6; Renilla control light, replicate 2 = 1.96e6; inactive. CG3611 [DRSC04395] showed firefly reporter light, replicate 1 = 4.46e5; firefly reporter light, replicate 2 = 3.57e5; Renilla control light, replicate 1 = 1.67e6; Renilla control light, replicate 2 = 1.70e6; inactive. Silencing of Pabp2 [DRSC07501] resulted in: firefly reporter light, replicate 1 = 94341; firefly reporter light, replicate 2 = 1.18e5; Renilla control light, replicate 1 = 6.16e5; Renilla control light, replicate 2 = 5.63e5; inactive.

CG32071 [DRSC22298] gave firefly reporter light, replicate 1 = 5.92e5; firefly reporter light, replicate 2 = 5.03e5; Renilla control light, replicate 1 = 1.71e6; Renilla control light, replicate 2 = 1.33e6; inactive. Knock-down of CG32071 [DRSC25705] resulted in: firefly reporter light, replicate 1 = 8.42e5; firefly reporter light, replicate 2 = 8.87e5; Renilla control light, replicate 1 = 7.34e5; Renilla control light, replicate 2 = 7.57e5; inactive. Against Atf6 [DRSC04743] the deposit lists firefly reporter light, replicate 1 = 5.68e5; firefly reporter light, replicate 2 = 9.51e5; Renilla control light, replicate 1 = 1.10e6; Renilla control light, replicate 2 = 1.92e6; inactive. For Atf6 [DRSC04889], the entry reads firefly reporter light, replicate 1 = 3.36e5; firefly reporter light, replicate 2 = 5.20e5; Renilla control light, replicate 1 = 2.16e6; Renilla control light, replicate 2 = 2.29e6; inactive. Atf6 [DRSC28936] showed firefly reporter light, replicate 1 = 4.95e5; firefly reporter light, replicate 2 = 3.36e5; Renilla control light, replicate 1 = 9.56e5; Renilla control light, replicate 2 = 9.92e5; inactive.
